Experimental data as given in the supplement of paper PMC12889115.
The list shows a part of the results. Values are raw readings; no control value is given beside them.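 Primary screen: polymyxin B was added at a level permeabilizing Salmonella outer membranes while sparing inner membranes. DMSO wells, both with and without polymyxin B, established maximum growth. Plate-to-plate variation meant each plate was ranked on its own, and the lowest-OD600 compounds were selected as hits.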

Tested on: Salmonella enterica serovar Typhimurium SL1344
Assay: bacterial growth OD600 after 18 h with compound and polymyxin B; higher = more bacterial growth (less inhibition)
Details: 50 µM, Mueller-Hinton broth

Structure (SMILES) | bacterial growth OD600 (polymyxin B 1 µg/mL) | bacterial growth OD600 (polymyxin B 0.75 µg/mL)
COCCCC1CCN(Cc2nc(-c3ccc(OC)cc3)no2)CC1 | 0.873 | –
c1ccc(CN2CCC(NC3CCCN(c4nc5ccccc5s4)C3)CC2)nc1 (stereo unspecified) | 1.1 | –
O=C(CCN1Cc2ccccc2OC(c2ccccc2F)C1)N1CC2CCC1C2 (stereo unspecified) | – | 0.675
Fc1ccccc1-c1cnnc(N2CCCN(c3ncccn3)CC2)n1 | 1.05 | –
CCO[C@H]1[C@H](NC(=O)c2cccnc2)c2ccccc2C12CCN(C(=O)CCCC(=O)OC)CC2 | – | 0.851
Cc1csc(CN(C)C(=O)c2ccc3oc(Cc4ccc(Cl)cc4)nc3c2)n1 | – | 0.035
Cn1ccnc1CN1CCN(C(=O)CCN2Cc3ccccc3OC(c3ccccc3F)C2)CC1 (stereo unspecified) | – | 0.739
COc1cc2nc(CN3CCCCC3c3nccs3)nc(N3CCCCC3)c2cc1OC (stereo unspecified) | – | 0.716
Fc1cccc(CN2CCCC3(CCN(Cc4cccnc4)C3)C2)c1F (stereo unspecified) | 0.668 | –
O=C1CCCN1CCC1CCN(Cc2nc(-c3ccccc3)no2)CC1 | 0.943 | –
Cc1n[nH]c(C)c1CNC(=O)C1CCCN(C2CCN(C(C)C)CC2)C1 (stereo unspecified) | – | 1.04
Cc1cc(CNC(=O)c2c[nH]cn2)c2[nH]c(C)c(C)c2c1 | – | 0.952
Cc1noc(C)c1CCCNC(=O)c1ccc(NC2CCCC2)nc1 | 1.13 | –
CCN(Cc1nccn1C)C(=O)c1ccc(N2CCCCCC2)nc1 | – | 0.816
COCC(=O)Nc1cc(C(=O)N2CCCN(C(=O)c3ccco3)CC2)c2c(c1)nc(C1CCC1)n2C | – | 0.821
Cc1ccccc1C1(CC(=O)N2CCCC2c2nccs2)CC(=O)N(Cc2ccncc2)C1=O (stereo unspecified) | – | 0.825

In another format: results already given
Structure (SMILES)	bacterial growth OD600 (polymyxin B 1 µg/mL)	bacterial growth OD600 (polymyxin B 0.75 µg/mL)
O=C(CCN1Cc2ccccc2OC(c2ccccc2F)C1)N1CC2CCC1C2 (stereo unspecified)	–	0.675
Fc1ccccc1-c1cnnc(N2CCCN(c3ncccn3)CC2)n1	1.05	–

Carrying on.

Structure (SMILES) | bacterial growth OD600 (polymyxin B 1 µg/mL) | bacterial growth OD600 (polymyxin B 0.75 µg/mL)
COC(=O)[C@@H](C)NC(=O)c1coc(COc2cccc(C(F)(F)F)c2)n1 | – | 0.817
Cc1cccc(C(=O)N2CCC(C(Cc3ccccc3C)N(C)C(=O)Cn3cccn3)CC2)c1 (stereo unspecified) | – | 0.817
Cc1n[nH]c(C)c1CN(C)C(=O)c1cc(COc2cccc(F)c2)[nH]n1 | – | 0.994
COc1ccc(CC2(CCC(=O)N(C)C(C)c3ccon3)CCC(=O)N2)c2ccccc12 (stereo unspecified) | – | 0.766
O=C(CCC1CCCN(Cc2cccn2-c2nccs2)C1)Nc1ccccc1F (stereo unspecified) | 0.895 | –
Cc1noc(C)c1CCC(=O)N1CCOC(CCCC(C)C)C1 (stereo unspecified) | 0.922 | –
CSCCN1C(=O)CCC1CCNCCOc1ccc(F)cc1 (stereo unspecified) | – | 0.897
O=C(C[n+]1cc([O-])on1)N1CCCC(CCc2cccc(F)c2)C1 (stereo unspecified) | – | 0.597
C[C@@H]1CN(C2(C(=O)NCc3cn4ccccc4n3)Cc3ccccc3C2)C[C@H](C)O1 | – | 0.788
COCC(=O)N1CCC(Oc2ccc(C(=O)NC(C)c3csc(C)n3)cc2)CC1 (stereo unspecified) | 0.912 | –
CCn1ccnc1CN(C)C(=O)c1cc(OC)ccc1OC1CCN(C2CCCC2)CC1 | 1.25 | –
Cc1ccccc1N1CCN(C2CCCN(C(=O)C3CCCC3)C2)CC1 (stereo unspecified) | 0.806 | –
O=C(C1CCN(c2nc(-c3ccccc3)nc3c2CCC3)CC1)N1CCCC1 | 0.589 | –
CCc1ccc(CN(C)C(=O)c2cccc(-n3cc(NC(=O)Cc4cccc(C)c4)cn3)c2)nc1 | – | 0.713
CC1(C)Cc2cc(CNCC3(O)CCCN(CC4CCC4)C3=O)ccc2O1 (stereo unspecified) | – | 0.942
